From the supplement of paper PMC12823440, “Inhibitors supercharge kinase turnover through native proteolytic circuits” (Nature, 2025)
This is one part of the list. Hit calls seldom repeat between salt and free forms of one compound.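 Kinases were expressed as nanoluciferase fusions in K562 cells and luminescence was read every 4 h between 2 and 18 h as percent of control, DMSO set to 100% and a positive control to 0%. A time point counts as decreased when the signal drops significantly (2 sigma). The hit call is the authors' own, does not follow from the count of time points alone, and its rule is not shown.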

Amino acid sequences for entries named in this document (tags omitted). A change or cut given only in a name is not applied to a line headed by its entry.
UniProt P28482, whole entry: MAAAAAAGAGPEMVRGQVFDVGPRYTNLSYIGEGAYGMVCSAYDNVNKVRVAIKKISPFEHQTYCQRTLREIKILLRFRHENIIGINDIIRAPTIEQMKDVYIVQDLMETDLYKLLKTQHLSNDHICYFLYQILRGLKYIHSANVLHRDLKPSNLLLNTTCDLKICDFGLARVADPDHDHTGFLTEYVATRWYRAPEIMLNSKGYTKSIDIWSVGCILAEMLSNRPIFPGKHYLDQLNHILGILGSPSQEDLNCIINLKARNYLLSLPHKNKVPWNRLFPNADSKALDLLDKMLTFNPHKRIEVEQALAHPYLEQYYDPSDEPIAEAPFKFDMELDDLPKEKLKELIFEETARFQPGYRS
UniProt P31152, whole entry: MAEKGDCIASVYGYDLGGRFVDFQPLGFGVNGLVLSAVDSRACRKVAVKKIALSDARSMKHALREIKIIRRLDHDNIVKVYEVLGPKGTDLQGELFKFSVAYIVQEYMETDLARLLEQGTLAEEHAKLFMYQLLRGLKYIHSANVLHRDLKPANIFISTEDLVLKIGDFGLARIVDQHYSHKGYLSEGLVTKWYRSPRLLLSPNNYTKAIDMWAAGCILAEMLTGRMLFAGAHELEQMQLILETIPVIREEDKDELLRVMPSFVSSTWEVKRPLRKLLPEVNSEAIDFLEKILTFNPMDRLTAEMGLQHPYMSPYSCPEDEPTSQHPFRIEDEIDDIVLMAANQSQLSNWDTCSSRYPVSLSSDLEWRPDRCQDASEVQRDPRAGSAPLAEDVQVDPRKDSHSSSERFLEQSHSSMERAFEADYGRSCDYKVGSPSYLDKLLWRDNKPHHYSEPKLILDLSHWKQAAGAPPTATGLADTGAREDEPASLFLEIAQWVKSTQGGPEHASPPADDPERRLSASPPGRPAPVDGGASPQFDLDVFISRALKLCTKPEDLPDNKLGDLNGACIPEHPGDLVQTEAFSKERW
UniProt P49137, whole entry, looked up: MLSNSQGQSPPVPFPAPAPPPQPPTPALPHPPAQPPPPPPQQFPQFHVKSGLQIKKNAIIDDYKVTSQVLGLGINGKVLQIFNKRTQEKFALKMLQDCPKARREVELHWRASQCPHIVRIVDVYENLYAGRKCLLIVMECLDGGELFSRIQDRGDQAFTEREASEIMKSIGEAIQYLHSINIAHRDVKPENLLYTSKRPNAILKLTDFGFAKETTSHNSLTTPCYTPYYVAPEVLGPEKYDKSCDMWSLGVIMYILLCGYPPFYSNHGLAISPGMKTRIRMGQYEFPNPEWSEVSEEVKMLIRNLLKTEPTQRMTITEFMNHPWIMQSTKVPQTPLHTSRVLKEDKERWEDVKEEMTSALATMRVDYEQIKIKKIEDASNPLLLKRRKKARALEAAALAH
UniProt Q9BUB5: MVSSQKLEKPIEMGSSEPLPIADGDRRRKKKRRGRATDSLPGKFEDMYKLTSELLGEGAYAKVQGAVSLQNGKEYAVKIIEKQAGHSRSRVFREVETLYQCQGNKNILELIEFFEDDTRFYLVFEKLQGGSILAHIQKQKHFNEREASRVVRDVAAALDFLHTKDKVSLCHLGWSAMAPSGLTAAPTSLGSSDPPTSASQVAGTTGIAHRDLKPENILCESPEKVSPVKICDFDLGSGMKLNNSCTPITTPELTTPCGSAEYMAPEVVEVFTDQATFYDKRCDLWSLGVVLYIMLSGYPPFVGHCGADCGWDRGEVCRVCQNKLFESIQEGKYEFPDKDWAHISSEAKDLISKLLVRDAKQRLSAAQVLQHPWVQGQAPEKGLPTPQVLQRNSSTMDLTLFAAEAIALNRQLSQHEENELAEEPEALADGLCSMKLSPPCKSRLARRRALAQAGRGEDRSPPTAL
UniProt Q16620, whole entry, looked up: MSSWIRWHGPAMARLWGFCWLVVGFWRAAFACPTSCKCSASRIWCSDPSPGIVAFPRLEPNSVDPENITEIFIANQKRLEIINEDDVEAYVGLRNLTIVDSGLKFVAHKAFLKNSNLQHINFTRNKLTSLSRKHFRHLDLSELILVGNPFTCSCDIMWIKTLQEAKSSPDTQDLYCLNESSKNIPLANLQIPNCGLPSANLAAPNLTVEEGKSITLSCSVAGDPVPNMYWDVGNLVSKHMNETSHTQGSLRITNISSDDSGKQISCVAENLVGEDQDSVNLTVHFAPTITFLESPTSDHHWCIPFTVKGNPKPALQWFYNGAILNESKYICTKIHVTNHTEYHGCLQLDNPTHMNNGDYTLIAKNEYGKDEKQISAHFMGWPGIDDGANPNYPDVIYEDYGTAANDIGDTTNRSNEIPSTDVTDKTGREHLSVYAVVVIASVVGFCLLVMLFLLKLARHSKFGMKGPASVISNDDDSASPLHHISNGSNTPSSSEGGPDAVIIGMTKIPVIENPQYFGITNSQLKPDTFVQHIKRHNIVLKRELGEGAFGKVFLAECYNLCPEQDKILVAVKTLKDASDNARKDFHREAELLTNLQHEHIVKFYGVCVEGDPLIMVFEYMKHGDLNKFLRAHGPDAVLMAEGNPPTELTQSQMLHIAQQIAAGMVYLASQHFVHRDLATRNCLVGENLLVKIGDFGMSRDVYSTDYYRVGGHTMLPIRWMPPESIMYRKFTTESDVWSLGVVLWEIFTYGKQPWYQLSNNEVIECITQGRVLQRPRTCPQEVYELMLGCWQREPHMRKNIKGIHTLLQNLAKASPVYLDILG
UniProt Q96KB5: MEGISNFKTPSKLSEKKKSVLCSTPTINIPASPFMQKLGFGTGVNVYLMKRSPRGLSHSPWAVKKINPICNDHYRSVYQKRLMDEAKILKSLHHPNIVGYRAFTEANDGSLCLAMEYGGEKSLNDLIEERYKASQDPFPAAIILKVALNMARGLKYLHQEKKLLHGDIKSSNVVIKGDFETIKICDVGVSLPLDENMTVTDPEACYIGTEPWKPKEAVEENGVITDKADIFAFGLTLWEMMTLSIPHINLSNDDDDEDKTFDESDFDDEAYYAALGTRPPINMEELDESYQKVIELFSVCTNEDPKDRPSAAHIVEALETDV
UniProt P09619, whole entry: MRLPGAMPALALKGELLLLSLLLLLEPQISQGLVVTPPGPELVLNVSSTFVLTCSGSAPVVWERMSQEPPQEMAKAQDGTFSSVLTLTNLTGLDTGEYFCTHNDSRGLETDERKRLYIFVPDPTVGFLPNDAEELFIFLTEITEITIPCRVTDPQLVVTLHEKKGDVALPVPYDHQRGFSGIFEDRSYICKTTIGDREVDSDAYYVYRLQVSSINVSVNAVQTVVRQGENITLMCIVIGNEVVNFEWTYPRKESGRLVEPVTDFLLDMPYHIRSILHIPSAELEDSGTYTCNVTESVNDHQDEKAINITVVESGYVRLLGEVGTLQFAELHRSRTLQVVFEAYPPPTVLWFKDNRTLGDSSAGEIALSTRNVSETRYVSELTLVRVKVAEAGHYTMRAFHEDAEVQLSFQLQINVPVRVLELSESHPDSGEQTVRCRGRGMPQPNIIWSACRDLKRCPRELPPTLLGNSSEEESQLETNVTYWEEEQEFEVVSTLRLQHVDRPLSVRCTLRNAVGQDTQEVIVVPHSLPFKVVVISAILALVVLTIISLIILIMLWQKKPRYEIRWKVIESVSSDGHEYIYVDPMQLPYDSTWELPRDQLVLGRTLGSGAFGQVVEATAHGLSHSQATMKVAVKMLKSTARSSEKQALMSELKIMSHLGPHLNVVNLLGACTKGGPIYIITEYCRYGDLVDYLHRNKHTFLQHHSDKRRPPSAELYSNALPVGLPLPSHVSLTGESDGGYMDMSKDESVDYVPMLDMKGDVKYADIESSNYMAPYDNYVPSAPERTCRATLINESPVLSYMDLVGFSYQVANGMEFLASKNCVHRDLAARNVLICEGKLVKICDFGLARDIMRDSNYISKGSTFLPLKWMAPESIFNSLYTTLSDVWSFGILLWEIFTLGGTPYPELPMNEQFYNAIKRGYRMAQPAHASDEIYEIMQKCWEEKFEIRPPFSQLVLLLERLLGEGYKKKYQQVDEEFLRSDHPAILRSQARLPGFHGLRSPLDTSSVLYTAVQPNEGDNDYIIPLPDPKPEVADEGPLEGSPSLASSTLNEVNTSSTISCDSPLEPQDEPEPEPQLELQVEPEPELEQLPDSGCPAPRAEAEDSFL
UniProt Q15118, whole entry, looked up: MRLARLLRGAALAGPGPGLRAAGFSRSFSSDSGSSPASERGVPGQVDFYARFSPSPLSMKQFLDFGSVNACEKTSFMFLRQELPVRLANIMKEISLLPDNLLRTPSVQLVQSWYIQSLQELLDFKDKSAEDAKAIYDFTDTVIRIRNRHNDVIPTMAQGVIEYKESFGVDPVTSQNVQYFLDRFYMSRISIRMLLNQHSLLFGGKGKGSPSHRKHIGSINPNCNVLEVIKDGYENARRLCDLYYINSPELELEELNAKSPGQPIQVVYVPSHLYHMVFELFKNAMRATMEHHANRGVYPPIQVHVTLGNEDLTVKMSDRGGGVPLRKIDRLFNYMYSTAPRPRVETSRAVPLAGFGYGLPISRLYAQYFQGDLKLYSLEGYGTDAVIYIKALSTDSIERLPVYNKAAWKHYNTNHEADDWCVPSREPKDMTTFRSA
UniProt Q9UBF8: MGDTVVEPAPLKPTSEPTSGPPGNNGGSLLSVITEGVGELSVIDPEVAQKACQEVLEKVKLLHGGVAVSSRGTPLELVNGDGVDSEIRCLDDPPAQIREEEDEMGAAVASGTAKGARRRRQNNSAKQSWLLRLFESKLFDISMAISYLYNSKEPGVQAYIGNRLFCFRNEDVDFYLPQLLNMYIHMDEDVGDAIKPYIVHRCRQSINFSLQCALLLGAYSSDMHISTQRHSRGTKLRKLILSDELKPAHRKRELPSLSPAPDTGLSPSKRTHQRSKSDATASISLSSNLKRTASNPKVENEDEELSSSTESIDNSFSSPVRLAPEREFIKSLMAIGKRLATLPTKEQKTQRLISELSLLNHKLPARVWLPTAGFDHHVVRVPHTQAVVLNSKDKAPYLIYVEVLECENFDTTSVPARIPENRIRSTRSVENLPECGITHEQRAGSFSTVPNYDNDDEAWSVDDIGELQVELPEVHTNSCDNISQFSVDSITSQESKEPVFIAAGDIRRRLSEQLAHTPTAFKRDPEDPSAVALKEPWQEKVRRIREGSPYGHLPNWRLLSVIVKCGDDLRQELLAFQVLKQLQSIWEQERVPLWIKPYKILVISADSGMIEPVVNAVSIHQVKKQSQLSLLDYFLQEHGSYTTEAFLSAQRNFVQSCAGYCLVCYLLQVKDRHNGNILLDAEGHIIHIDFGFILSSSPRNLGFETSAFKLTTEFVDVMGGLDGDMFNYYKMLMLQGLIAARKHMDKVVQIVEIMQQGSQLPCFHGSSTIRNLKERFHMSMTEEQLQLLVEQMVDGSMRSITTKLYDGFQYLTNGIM
UniProt P53350, whole entry: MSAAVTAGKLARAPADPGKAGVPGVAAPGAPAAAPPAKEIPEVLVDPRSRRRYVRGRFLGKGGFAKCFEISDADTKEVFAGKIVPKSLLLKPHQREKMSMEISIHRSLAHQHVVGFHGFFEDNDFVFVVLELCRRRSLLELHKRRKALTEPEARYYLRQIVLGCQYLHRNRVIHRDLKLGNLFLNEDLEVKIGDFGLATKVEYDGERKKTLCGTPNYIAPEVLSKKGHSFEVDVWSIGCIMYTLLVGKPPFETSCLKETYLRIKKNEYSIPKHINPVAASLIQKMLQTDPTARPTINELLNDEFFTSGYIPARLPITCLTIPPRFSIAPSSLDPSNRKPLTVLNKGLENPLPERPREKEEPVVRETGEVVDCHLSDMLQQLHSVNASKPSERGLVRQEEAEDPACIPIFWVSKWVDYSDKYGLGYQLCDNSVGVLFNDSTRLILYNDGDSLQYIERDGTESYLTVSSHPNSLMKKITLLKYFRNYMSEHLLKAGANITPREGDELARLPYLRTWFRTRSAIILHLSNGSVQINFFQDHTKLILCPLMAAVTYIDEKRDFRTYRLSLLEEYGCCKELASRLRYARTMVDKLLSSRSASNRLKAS

How the values were obtained:
Assay in all cases: kinase-Nluc reporter destabilization hit call (1 = scored as downregulated) (binary); higher = compound decreases kinase abundance
Conditions in all cases: K562, 2-18 h
MAPK1 = MAPK1 (UniProt P28482)
MAPK4 = MAPK4 (UniProt P31152)
MAPKAPK2 = MAPKAPK2 (UniProt P49137)
MKNK1 = MKNK1 (UniProt Q9BUB5)
NTRK2 = NTRK2 (UniProt Q16620)
NTRK3 = NTRK3 (UniProt Q16288)
PAK4 = PAK4 (UniProt O96013)
PBK = PBK (UniProt Q96KB5)
PDGFRB = PDGFRB (UniProt P09619)
PDK1 = PDK1 (UniProt Q15118)
PDPK1 = PDPK1 (UniProt O15530)
PIK4CA = PIK4CA (UniProt P42356)
PIK4CB = PIK4CB (UniProt Q9UBF8)
PLK1 = PLK1 (UniProt P53350)
PRKAA1 = PRKAA1 (UniProt Q13131)
PRKCA = PRKCA (UniProt P17252)
PTK2 = PTK2 (UniProt Q05397)
PTK2B = PTK2B (UniProt Q14289)
RAF1 = RAF1 (UniProt P04049)
[1] = target: RAF1_S257L (clone: RAF1_mut) (UniProt P04049)

Measured: kinase-Nluc reporter destabilization hit call

CN(C)C(=O)c1cc2cnc(Nc3ccc(N4CCNCC4)cn3)nc2n1C1CCCC1 [Ribociclib succinate]
inactive: MAPK1; 10 µM 0 | MAPK4; 10 µM 0 | MAPKAPK2; 10 µM 0 | MKNK1; 10 µM 0 | NTRK2; 10 µM 0 | NTRK3; 10 µM 0 | PAK4; 10 µM 0 | PBK; 10 µM 0 | PDGFRB; 10 µM 0 | PDK1; 10 µM 0 | PDPK1; 10 µM 0 | PIK4CA; 10 µM 0 | PIK4CB; 10 µM 0 | PLK1; 10 µM 0 | PRKAA1; 10 µM 0 | PRKCA; 10 µM 0 | PTK2; 10 µM 0 | PTK2B; 10 µM 0 | RAF1; 10 µM 0 | [1]; 10 µM 0

CN1CCCN(C(=O)c2cccc(-c3ccc(/C=C4/C(=O)Nc5ccc(Cl)cc54)o3)c2)CC1
inactive: MAPK1; 2.5 µM 0 | MAPK4; 2.5 µM 0 | MAPKAPK2; 2.5 µM 0 | MKNK1; 2.5 µM 0 | NTRK2; 2.5 µM 0 | NTRK3; 2.5 µM 0 | PAK4; 2.5 µM 0 | PBK; 2.5 µM 0 | PDGFRB; 2.5 µM 0 | PDK1; 2.5 µM 0 | PDPK1; 2.5 µM 0 | PIK4CA; 2.5 µM 0 | PIK4CB; 2.5 µM 0 | PLK1; 2.5 µM 0 | PRKAA1; 2.5 µM 0 | PRKCA; 2.5 µM 0 | PTK2; 2.5 µM 0 | PTK2B; 2.5 µM 0 | RAF1; 2.5 µM 0 | [1]; 2.5 µM 0

COc1cc2nccc(Nc3cc(OC)c(OC)c(OC)c3)c2cc1OC [GAK inhibitor 49]
inactive: MAPK1; 10 µM 0 | MAPK4; 10 µM 0 | MAPKAPK2; 10 µM 0 | MKNK1; 10 µM 0 | NTRK2; 10 µM 0 | NTRK3; 10 µM 0 | PAK4; 10 µM 0 | PBK; 10 µM 0 | PDGFRB; 10 µM 0 | PDK1; 10 µM 0 | PDPK1; 10 µM 0 | PIK4CA; 10 µM 0 | PIK4CB; 10 µM 0 | PLK1; 10 µM 0 | PRKAA1; 10 µM 0 | PRKCA; 10 µM 0 | PTK2; 10 µM 0 | PTK2B; 10 µM 0 | RAF1; 10 µM 0 | [1]; 10 µM 0

O=C(c1ccc(F)c(F)c1Nc1ccc(I)cc1F)N1CC(O)([C@@H]2CCCCN2)C1 [Cobimetinib (hemifumarate)]
inactive: MAPK1; 10 µM 0 | MAPK4; 10 µM 0 | MAPKAPK2; 10 µM 0 | MKNK1; 10 µM 0 | NTRK3; 10 µM 0 | PAK4; 10 µM 0 | PBK; 10 µM 0 | PDGFRB; 10 µM 0 | PDK1; 10 µM 0 | PDPK1; 10 µM 0 | PIK4CA; 10 µM 0 | PIK4CB; 10 µM 0 | PLK1; 10 µM 0 | PRKAA1; 10 µM 0 | PRKCA; 10 µM 0 | PTK2; 10 µM 0 | PTK2B; 10 µM 0 | RAF1; 10 µM 0 | [1]; 10 µM 0

Fetched one by one from the entries so far, 2 records:
CN1CCCN(C(=O)c2cccc(-c3ccc(/C=C4/C(=O)Nc5ccc(Cl)cc54)o3)c2)CC1
inactive: MAPK1; 2.5 µM 0 | MAPK4; 2.5 µM 0 | MAPKAPK2; 2.5 µM 0 | MKNK1; 2.5 µM 0 | NTRK2; 2.5 µM 0 | NTRK3; 2.5 µM 0 | PAK4; 2.5 µM 0 | PBK; 2.5 µM 0 | PDGFRB; 2.5 µM 0 | PDK1; 2.5 µM 0 | PDPK1; 2.5 µM 0 | PIK4CA; 2.5 µM 0 | PIK4CB; 2.5 µM 0 | PLK1; 2.5 µM 0 | PRKAA1; 2.5 µM 0 | PRKCA; 2.5 µM 0 | PTK2; 2.5 µM 0 | PTK2B; 2.5 µM 0 | RAF1; 2.5 µM 0 | [1]; 2.5 µM 0

O=C(c1ccc(F)c(F)c1Nc1ccc(I)cc1F)N1CC(O)([C@@H]2CCCCN2)C1 [Cobimetinib (hemifumarate)]
inactive: MAPK1; 10 µM 0 | MAPK4; 10 µM 0 | MAPKAPK2; 10 µM 0 | MKNK1; 10 µM 0 | NTRK3; 10 µM 0 | PAK4; 10 µM 0 | PBK; 10 µM 0 | PDGFRB; 10 µM 0 | PDK1; 10 µM 0 | PDPK1; 10 µM 0 | PIK4CA; 10 µM 0 | PIK4CB; 10 µM 0 | PLK1; 10 µM 0 | PRKAA1; 10 µM 0 | PRKCA; 10 µM 0 | PTK2; 10 µM 0 | PTK2B; 10 µM 0 | RAF1; 10 µM 0 | [1]; 10 µM 0

Remaining list, next part.

CNC(=O)c1ccccc1Nc1cc(Nc2ccc(N3CCOCC3)cc2OC)ncc1C(F)(F)F
inactive: MAPK1; 10 µM 0 | MAPK4; 10 µM 0 | MAPKAPK2; 10 µM 0 | MKNK1; 10 µM 0 | NTRK2; 10 µM 0 | NTRK3; 10 µM 0 | PAK4; 10 µM 0 | PBK; 10 µM 0 | PDGFRB; 10 µM 0 | PDK1; 10 µM 0 | PDPK1; 10 µM 0 | PIK4CA; 10 µM 0 | PIK4CB; 10 µM 0 | PLK1; 10 µM 0 | PRKAA1; 10 µM 0 | PRKCA; 10 µM 0 | PTK2; 10 µM 0 | PTK2B; 10 µM 0 | RAF1; 10 µM 0 | [1]; 10 µM 0

N#CC[C@H](C1CCCC1)n1cc(-c2ncnc3[nH]ccc23)cn1 [Ruxolitinib (phosphate)]
inactive: MAPK1; 10 µM 0 | MAPK4; 10 µM 0 | MAPKAPK2; 10 µM 0 | MKNK1; 10 µM 0 | NTRK2; 10 µM 0 | PAK4; 10 µM 0 | PBK; 10 µM 0 | PDGFRB; 10 µM 0 | PDK1; 10 µM 0 | PDPK1; 10 µM 0 | PIK4CA; 10 µM 0 | PIK4CB; 10 µM 0 | PLK1; 10 µM 0 | PRKAA1; 10 µM 0 | PRKCA; 10 µM 0 | PTK2; 10 µM 0 | PTK2B; 10 µM 0 | RAF1; 10 µM 0 | [1]; 10 µM 0

C=CC(=O)Nc1cc2c(Nc3ccc(F)c(Cl)c3)ncnc2cc1C#CC(C)(C)N1CCN(C)CC1
inactive: MAPK1; 2.5 µM 0 | MAPK4; 2.5 µM 0 | MAPKAPK2; 2.5 µM 0 | MKNK1; 2.5 µM 0 | NTRK2; 2.5 µM 0 | NTRK3; 2.5 µM 0 | PAK4; 2.5 µM 0 | PBK; 2.5 µM 0 | PDGFRB; 2.5 µM 0 | PDK1; 2.5 µM 0 | PDPK1; 2.5 µM 0 | PIK4CA; 2.5 µM 0 | PIK4CB; 2.5 µM 0 | PLK1; 2.5 µM 0 | PRKAA1; 2.5 µM 0 | PRKCA; 2.5 µM 0 | PTK2; 2.5 µM 0 | PTK2B; 2.5 µM 0 | RAF1; 2.5 µM 0 | [1]; 2.5 µM 0

C/C=C1\C(=O)C[C@H]2[C@@H]3CCC4=CC(=O)CC[C@]4(C)[C@H]3CC[C@]12C [(Z)-Guggulsterone]
inactive: MAPK1; 10 µM 0 | MAPK4; 10 µM 0 | MAPKAPK2; 10 µM 0 | MKNK1; 10 µM 0 | NTRK2; 10 µM 0 | NTRK3; 10 µM 0 | PAK4; 10 µM 0 | PBK; 10 µM 0 | PDGFRB; 10 µM 0 | PDK1; 10 µM 0 | PDPK1; 10 µM 0 | PIK4CA; 10 µM 0 | PIK4CB; 10 µM 0 | PRKAA1; 10 µM 0 | PRKCA; 10 µM 0 | PTK2; 10 µM 0 | PTK2B; 10 µM 0 | RAF1; 10 µM 0 | [1]; 10 µM 0

C/C=C1\C(=O)C[C@H]2[C@@H]3CCC4=CC(=O)CC[C@]4(C)[C@H]3CC[C@]12C [Guggulsterone]
inactive: MAPK1; 10 µM 0 | MAPK4; 10 µM 0 | MAPKAPK2; 10 µM 0 | MKNK1; 10 µM 0 | NTRK2; 10 µM 0 | NTRK3; 10 µM 0 | PAK4; 10 µM 0 | PBK; 10 µM 0 | PDGFRB; 10 µM 0 | PDK1; 10 µM 0 | PDPK1; 10 µM 0 | PIK4CA; 10 µM 0 | PIK4CB; 10 µM 0 | PRKAA1; 10 µM 0 | PRKCA; 10 µM 0 | PTK2; 10 µM 0 | PTK2B; 10 µM 0 | RAF1; 10 µM 0 | [1]; 10 µM 0

CC(C)NC[C@@H](C(=O)N1CCN(c2ncnc3c2[C@H](C)C[C@H]3O)CC1)c1ccc(Cl)cc1 [Ipatasertib]
inactive: MAPK1; 10 µM 0 | MAPK4; 10 µM 0 | MAPKAPK2; 10 µM 0 | MKNK1; 10 µM 0 | NTRK3; 10 µM 0 | PAK4; 10 µM 0 | PBK; 10 µM 0 | PDGFRB; 10 µM 0 | PDK1; 10 µM 0 | PDPK1; 10 µM 0 | PIK4CA; 10 µM 0 | PIK4CB; 10 µM 0 | PLK1; 10 µM 0 | PRKAA1; 10 µM 0 | PRKCA; 10 µM 0 | PTK2; 10 µM 0 | PTK2B; 10 µM 0 | RAF1; 10 µM 0 | [1]; 10 µM 0

COCCOc1cc(F)c2c(Nc3ccc(NC(=O)Cn4cc(C(C)C)nn4)cc3)ncnc2c1
inactive: MAPK1; 10 µM 0 | MAPK4; 10 µM 0 | MAPKAPK2; 10 µM 0 | MKNK1; 10 µM 0 | NTRK2; 10 µM 0 | NTRK3; 10 µM 0 | PAK4; 10 µM 0 | PBK; 10 µM 0 | PDGFRB; 10 µM 0 | PDK1; 10 µM 0 | PDPK1; 10 µM 0 | PIK4CA; 10 µM 0 | PIK4CB; 10 µM 0 | PLK1; 10 µM 0 | PRKAA1; 10 µM 0 | PRKCA; 10 µM 0 | PTK2; 10 µM 0 | PTK2B; 10 µM 0 | RAF1; 10 µM 0 | [1]; 10 µM 0
